Where a name gives a salt, the structure may show the parent alone. The list shows a part of the results. Hit calls seldom repeat between salt and free forms of one compound.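 In K562 cells expressing nanoluciferase-fused kinases, luminescence was recorded at 4 h intervals between 2 and 18 h, normalized as percent of control with DMSO at 100% and a positive control at 0%. A significant (2 sigma) signal drop marks a time point as decreased. The authors' rule for a hit is not shown and takes in more than the number of time points.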
How the values were obtained:
Assay in all cases: number of time points (of 5) at which kinase-Nluc abundance scored as decreased, DMSO-normalised (count); higher = more persistent destabilization
Details in all cases: K562; 2-18 h
[1] = biological target: PRKCA (UniProt P17252)
[2] = biological target: PTK2 (UniProt Q05397)
[3] = biological target: PTK2B (UniProt Q14289)
[4] = biological target: RAF1 (UniProt P04049)
[5] = biological target: RAF1_S257L (clone: RAF1_mut) (UniProt P04049)
[6] = biological target: RET (UniProt P07949)
[7] = biological target: RET_M918T (clone: RET_mut) (UniProt P07949)
[8] = biological target: RIOK1 (UniProt Q9BRS2)
[9] = biological target: RIPK1 (UniProt Q13546)
[10] = biological target: RIPK2 (UniProt O43353)
[11] = biological target: ROR2 (UniProt Q01974)
[12] = biological target: RPS6KA1 (UniProt Q15418)
[13] = biological target: SPHK1 (UniProt Q9NYA1)
[14] = biological target: SRC (UniProt P12931)
[15] = biological target: STK24 (UniProt Q9Y6E0)
[16] = biological target: STK38 (UniProt Q15208)
[17] = biological target: SYK (UniProt P43405)
[18] = biological target: TEC (UniProt P42680)
[19] = biological target: TYK2 (UniProt P29597)
[20] = biological target: ULK3 (UniProt Q6PHR2)

By UniProt entry, the sequences of proteins in these tests, tags left out. Where a name states a change or a piece, a line headed by the entry shows the natural chain unless it says otherwise.
UniProt Q05397, whole entry, looked up: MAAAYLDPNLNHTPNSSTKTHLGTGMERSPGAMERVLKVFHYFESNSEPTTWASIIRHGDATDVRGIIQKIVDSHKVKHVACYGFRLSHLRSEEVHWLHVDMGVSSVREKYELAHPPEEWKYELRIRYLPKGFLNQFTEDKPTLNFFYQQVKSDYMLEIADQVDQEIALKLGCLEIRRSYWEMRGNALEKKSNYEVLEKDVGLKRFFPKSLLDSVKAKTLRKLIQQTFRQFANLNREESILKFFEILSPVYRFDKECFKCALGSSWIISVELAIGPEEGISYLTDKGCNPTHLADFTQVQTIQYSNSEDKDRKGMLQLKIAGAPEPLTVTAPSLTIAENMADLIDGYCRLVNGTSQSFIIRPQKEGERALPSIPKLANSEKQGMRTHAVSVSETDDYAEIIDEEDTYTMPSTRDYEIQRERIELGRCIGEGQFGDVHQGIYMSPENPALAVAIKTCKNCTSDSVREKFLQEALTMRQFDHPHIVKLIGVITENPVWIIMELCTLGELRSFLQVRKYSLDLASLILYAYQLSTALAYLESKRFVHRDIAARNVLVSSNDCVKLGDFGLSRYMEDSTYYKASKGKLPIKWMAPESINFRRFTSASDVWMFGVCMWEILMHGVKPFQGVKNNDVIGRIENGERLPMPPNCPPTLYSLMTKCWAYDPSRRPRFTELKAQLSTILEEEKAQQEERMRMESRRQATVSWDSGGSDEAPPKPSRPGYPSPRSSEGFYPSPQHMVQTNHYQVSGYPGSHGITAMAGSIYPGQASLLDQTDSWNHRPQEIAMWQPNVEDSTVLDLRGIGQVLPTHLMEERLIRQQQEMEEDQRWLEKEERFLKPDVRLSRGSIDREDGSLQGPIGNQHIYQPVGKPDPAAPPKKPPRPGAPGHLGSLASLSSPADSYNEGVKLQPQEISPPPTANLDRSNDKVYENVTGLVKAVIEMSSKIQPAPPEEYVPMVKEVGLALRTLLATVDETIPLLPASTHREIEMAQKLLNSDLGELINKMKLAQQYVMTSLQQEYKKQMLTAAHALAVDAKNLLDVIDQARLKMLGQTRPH
UniProt P07949, whole entry, looked up: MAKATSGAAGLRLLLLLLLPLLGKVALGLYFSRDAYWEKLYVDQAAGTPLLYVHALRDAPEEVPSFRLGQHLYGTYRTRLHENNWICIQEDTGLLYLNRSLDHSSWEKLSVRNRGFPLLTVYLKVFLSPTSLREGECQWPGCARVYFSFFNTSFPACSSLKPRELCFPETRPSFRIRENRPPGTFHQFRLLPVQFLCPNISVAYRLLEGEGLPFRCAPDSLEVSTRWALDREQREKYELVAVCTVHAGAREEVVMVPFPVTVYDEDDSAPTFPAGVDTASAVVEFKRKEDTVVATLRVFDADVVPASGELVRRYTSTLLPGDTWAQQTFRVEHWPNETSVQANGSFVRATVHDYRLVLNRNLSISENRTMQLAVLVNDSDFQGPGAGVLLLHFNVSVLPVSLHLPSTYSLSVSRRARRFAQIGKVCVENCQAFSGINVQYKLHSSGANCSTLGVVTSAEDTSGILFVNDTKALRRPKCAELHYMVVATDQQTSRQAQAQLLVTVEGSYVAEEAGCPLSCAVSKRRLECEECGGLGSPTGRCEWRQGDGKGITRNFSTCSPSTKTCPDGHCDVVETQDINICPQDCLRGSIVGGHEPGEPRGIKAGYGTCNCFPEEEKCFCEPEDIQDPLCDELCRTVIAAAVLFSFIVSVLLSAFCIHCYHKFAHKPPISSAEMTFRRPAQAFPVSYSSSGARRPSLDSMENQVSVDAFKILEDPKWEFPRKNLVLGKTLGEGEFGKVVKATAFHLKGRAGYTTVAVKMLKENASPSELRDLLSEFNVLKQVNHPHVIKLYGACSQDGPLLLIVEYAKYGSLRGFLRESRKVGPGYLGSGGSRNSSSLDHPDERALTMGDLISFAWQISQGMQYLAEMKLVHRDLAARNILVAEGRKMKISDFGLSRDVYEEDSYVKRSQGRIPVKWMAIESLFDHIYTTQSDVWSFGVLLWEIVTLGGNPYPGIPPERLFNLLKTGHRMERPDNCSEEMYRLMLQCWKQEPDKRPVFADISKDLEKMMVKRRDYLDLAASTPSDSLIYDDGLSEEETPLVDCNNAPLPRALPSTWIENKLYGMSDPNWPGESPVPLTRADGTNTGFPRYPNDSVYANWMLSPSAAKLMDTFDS
UniProt Q9BRS2: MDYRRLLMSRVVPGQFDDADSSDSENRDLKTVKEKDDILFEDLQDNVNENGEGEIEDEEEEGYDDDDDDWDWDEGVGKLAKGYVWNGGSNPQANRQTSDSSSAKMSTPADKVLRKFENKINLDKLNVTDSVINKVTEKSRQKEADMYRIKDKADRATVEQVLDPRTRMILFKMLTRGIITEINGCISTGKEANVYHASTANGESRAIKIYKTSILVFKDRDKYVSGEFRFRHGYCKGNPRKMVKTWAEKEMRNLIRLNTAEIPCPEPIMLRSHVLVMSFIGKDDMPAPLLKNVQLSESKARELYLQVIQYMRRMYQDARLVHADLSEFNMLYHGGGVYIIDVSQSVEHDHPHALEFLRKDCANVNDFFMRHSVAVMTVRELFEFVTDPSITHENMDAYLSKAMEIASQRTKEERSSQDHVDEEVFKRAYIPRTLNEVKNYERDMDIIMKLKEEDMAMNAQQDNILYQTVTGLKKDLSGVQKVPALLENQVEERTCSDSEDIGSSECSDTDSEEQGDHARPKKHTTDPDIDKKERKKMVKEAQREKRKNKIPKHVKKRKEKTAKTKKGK
UniProt Q15418, whole entry: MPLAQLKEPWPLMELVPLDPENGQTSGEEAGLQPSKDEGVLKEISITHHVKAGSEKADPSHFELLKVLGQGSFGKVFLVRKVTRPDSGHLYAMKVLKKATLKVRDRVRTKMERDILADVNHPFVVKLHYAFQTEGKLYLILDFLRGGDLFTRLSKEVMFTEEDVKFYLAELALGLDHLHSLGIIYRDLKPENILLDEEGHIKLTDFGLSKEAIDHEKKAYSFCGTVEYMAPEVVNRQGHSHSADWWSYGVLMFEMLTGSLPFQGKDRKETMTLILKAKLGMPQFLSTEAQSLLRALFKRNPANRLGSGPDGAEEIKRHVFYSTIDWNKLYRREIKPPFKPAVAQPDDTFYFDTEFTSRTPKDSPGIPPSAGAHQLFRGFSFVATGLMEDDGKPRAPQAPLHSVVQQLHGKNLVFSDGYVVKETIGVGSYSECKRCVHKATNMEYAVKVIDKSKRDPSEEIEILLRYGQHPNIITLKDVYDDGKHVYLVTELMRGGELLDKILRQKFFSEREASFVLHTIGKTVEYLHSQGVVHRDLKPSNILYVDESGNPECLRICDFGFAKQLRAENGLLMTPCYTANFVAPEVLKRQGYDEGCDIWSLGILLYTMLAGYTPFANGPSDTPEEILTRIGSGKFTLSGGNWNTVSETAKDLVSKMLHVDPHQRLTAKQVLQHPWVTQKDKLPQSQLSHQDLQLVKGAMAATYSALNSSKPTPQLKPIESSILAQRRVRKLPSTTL
UniProt Q9NYA1, whole entry: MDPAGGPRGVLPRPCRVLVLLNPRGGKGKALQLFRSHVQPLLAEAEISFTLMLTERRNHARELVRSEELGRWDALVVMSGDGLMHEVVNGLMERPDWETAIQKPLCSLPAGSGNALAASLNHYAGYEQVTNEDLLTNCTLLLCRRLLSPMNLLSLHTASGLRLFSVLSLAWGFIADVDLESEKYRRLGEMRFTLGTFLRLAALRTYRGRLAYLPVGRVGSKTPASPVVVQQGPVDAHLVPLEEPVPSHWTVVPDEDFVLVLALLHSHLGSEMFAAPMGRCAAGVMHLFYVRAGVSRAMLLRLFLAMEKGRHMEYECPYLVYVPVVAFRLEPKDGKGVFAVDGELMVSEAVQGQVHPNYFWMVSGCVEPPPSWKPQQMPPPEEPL
UniProt Q9Y6E0: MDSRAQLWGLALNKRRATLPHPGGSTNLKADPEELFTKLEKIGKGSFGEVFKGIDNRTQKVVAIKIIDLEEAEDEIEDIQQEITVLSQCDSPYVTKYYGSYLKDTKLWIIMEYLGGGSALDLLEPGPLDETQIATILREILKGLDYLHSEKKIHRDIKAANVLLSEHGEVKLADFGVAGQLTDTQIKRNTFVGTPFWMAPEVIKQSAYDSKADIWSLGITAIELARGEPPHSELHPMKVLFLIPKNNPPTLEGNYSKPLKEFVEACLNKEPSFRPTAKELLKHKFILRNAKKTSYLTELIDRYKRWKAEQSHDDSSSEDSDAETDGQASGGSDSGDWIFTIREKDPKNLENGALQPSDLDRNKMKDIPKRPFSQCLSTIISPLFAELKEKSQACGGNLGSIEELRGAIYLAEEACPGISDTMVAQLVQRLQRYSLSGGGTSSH
UniProt Q15208: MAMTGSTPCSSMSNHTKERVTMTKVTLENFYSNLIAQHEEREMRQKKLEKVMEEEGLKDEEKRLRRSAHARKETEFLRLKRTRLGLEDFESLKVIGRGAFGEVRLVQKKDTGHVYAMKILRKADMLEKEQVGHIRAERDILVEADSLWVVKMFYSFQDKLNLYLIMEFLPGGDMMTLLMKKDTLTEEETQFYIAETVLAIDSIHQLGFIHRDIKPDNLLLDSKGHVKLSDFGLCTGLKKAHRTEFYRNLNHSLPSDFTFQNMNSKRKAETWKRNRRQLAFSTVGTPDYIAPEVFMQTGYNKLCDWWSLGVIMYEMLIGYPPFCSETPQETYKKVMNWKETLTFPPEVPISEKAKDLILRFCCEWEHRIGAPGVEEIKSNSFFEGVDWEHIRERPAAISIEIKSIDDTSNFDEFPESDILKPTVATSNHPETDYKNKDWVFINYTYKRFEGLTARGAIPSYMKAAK
UniProt P42680: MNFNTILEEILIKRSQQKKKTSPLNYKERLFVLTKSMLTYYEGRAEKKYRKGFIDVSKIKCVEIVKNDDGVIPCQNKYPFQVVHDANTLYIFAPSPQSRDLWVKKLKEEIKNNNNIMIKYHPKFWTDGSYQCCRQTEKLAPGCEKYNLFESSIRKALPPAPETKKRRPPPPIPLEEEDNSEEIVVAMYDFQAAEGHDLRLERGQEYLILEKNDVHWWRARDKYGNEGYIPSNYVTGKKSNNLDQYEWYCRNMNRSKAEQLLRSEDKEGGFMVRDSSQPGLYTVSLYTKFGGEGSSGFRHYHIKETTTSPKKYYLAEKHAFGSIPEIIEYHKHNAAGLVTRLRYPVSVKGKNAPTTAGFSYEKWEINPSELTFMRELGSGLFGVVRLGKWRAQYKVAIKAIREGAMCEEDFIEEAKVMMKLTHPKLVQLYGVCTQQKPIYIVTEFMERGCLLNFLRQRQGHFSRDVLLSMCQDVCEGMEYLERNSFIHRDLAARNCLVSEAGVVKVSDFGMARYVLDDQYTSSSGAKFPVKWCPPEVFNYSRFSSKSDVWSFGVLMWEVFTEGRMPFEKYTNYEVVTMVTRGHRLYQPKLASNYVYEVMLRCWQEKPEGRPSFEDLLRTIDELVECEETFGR
UniProt P29597: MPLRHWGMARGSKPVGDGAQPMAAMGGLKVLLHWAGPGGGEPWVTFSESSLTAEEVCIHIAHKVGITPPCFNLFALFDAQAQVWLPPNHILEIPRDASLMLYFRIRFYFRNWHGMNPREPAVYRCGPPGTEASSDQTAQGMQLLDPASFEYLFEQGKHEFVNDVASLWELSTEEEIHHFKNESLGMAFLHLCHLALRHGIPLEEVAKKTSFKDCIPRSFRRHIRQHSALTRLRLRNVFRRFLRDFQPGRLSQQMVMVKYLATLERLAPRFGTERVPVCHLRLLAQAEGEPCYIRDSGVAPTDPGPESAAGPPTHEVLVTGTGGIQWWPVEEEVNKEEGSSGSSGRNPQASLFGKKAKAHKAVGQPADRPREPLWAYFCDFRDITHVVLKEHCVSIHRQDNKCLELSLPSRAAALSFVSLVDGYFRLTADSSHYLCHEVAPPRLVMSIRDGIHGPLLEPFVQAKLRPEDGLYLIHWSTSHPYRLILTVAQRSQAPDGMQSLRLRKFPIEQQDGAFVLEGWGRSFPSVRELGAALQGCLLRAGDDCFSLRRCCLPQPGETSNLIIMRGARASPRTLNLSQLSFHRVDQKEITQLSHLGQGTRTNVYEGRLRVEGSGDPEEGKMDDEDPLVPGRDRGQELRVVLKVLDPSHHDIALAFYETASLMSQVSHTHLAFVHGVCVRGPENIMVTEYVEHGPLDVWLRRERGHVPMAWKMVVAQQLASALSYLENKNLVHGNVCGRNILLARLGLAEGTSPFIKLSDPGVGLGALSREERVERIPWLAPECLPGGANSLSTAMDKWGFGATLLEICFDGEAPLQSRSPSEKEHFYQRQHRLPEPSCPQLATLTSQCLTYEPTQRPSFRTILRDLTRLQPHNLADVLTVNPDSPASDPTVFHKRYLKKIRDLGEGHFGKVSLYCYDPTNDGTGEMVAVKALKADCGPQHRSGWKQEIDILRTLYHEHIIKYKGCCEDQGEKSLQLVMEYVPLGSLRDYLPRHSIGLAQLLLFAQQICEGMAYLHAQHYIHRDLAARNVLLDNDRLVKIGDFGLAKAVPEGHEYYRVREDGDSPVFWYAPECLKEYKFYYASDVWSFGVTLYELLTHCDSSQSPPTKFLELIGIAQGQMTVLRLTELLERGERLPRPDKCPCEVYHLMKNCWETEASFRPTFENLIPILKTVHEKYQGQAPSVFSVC

Compound | number of time points [1] | number of time points [2] | number of time points [3] | number of time points [4] | number of time points [5] | number of time points [6] | number of time points [7] | number of time points [8] | number of time points [9] | number of time points [10] | number of time points [11] | number of time points [12] | number of time points [13] | number of time points [14] | number of time points [15] | number of time points [16] | number of time points [17] | number of time points [18] | number of time points [19] | number of time points [20]
Cc1[nH]ncc1-c1cc2nc([C@H]3CC4CCN3CC4)[nH]c(=O)c2s1 [(R)-Simurosertib] (10 µM) | 0 | 0 | 0 | 0 | 0 | 0 | 0 | 0 | 0 | 0 | 0 | 0 | 0 | 0 | 0 | 0 | 0 | 0 | 0 | 0
O=Cc1cn(Cc2ccc(Cl)cc2)c2ccccc12 [Oncrasin-1] (10 µM) | 0 | 0 | 0 | 0 | 0 | 0 | 0 | 0 | 0 | 0 | 0 | 0 | 0 | 0 | 0 | 0 | 0 | 0 | 0 | 0
O=C1c2ccccc2C(=O)c2c1cccc2-c1cnn(C2CCNCC2)c1 [PDK4-IN-1 (hydrochloride)] (10 µM) | 0 | 0 | 0 | 0 | 0 | 0 | 0 | 0 | 0 | 0 | 0 | 0 | 0 | 0 | 0 | 0 | 0 | 0 | 0 | 1
C/C(O)=C(\C#N)C(=O)Nc1cc(Br)ccc1Br (10 µM) | 0 | 0 | 0 | 0 | 0 | 0 | 0 | 0 | 0 | 0 | 0 | 0 | 0 | 0 | 0 | 0 | 0 | 0 | 0 | 0
COc1ccc2c(c1OC)C(OC)N(C)c1c-2ccc2cc3c(cc12)OCO3 (configuration not stated) [Angoline] (10 µM) | 0 | 0 | 0 | 0 | 0 | 0 | 0 | 0 | 0 | 0 | 0 | 0 | 0 | 0 | 0 | 0 | 0 | 0 | 0 | 0
COc1ccc2c(c1)/C(=C/c1cnc[nH]1)C(=O)N2 (2.5 µM) | 0 | 0 |  | 0 | 0 |  |  | 0 | 0 | 0 | 0 | 0 | 0 | 0 | 0 | 0 | 0 | 0 | 0 | 0
CC1C(=O)OC2C(O)C34C5OC(=O)C3(OC3OC(=O)C(O)C34C(C(C)(C)C)C5O)C12O (configuration not stated) [Ginkgolide C] (10 µM) | 0 | 0 | 0 | 0 | 0 | 0 | 0 | 0 | 0 | 0 | 0 | 0 | 0 | 0 | 0 | 0 | 0 | 0 | 0 | 0
COc1ccc2c(c[n+](C)c3c4cc5c(cc4ccc23)OCO5)c1OC [Chelerythrine (chloride)] (10 µM) | 0 | 0 | 0 | 0 | 0 | 0 | 0 | 0 | 3 | 0 | 0 | 0 | 0 | 0 | 0 | 0 | 0 | 0 | 0 | 0
C[S+]([O-])/C=C/CCN=C=S (configuration not stated) [Sulforaphene] (10 µM) | 0 | 0 | 0 | 0 | 0 | 0 | 0 | 0 | 0 | 0 | 0 | 0 | 0 | 0 | 0 | 0 | 0 | 0 | 0 | 0
C=C[C@H]1CN2CC[C@]3(C(=O)Nc4ccccc43)[C@@H]2C[C@@H]1/C(=C\OC)C(=O)OC [Corynoxeine] (2 µM) | 0 | 0 | 0 | 0 | 0 | 0 | 0 | 0 | 0 | 0 | 0 | 0 | 0 | 0 | 0 | 0 | 0 | 0 | 0 | 0
O=C(O)c1nn(Cc2ccc(Cl)cc2Cl)c2ccccc12 [Lonidamine] (10 µM) | 0 | 0 | 0 | 0 | 0 | 0 | 0 | 0 | 0 | 0 | 0 | 0 | 0 | 0 | 0 | 0 | 0 | 0 | 0 | 0
Cc1ccccc1-n1c(Cn2ncc3c(N)ncnc32)nc2cccc(C)c2c1=O (10 µM) | 0 | 0 | 0 | 0 | 0 | 0 | 0 | 0 | 0 | 0 | 0 | 0 | 0 | 0 | 0 | 0 | 0 | 0 | 0 | 0
COc1ccc(N(C(=O)Oc2c(C)cccc2C)c2ccnc(Nc3ccc(N4CCN(C)CC4)cc3)n2)c(OC)c1 (2.5 µM) | 0 | 0 | 0 | 0 | 0 | 0 | 0 | 0 | 0 | 0 | 0 | 0 | 0 | 0 | 0 | 0 | 0 | 0 | 0 | 0
CC(=O)O[C@H]1[C@H]2[C@@H](OC(=O)Cc3ccccc3)[C@@H](C)C[C@]2(OC(C)=O)C(=O)/C(C)=C/[C@@H]2[C@H](CC[C@@]13CO3)C2(C)C [Euphorbiasteroid] (10 µM) | 0 | 0 | 0 | 0 | 0 | 0 | 0 | 0 | 0 | 0 | 0 | 0 | 1 | 0 | 0 | 0 | 0 | 0 | 0 | 0
CC1=C[C@]23C(=O)[C@@H](C=C(CO)[C@@H](O)[C@]2(O)[C@H]1O)[C@H]1[C@@H](C[C@H]3C)C1(C)C [Ingenol] (10 µM) | 0 | 0 | 0 | 0 | 0 | 0 | 0 | 0 | 0 | 0 | 0 | 0 | 0 | 0 | 0 | 0 | 0 | 0 | 0 | 0
CCCCCCCCCCCCCCCCOC[C@H](COP(=O)([O-])OCC[N+](C)(C)C)OC(C)=O (10 µM) | 0 | 0 | 0 | 0 | 0 | 0 | 0 | 0 | 0 | 0 | 0 | 1 | 0 | 0 | 0 | 0 | 0 | 0 | 0 | 0
Cc1n[nH]cc1-c1cc2nc([C@@H]3CC4CCN3CC4)[nH]c(=O)c2s1 [Simurosertib] (2.5 µM) | 0 | 0 | 0 | 0 | 0 | 0 | 0 | 0 | 0 | 0 | 0 | 0 | 0 | 0 | 0 | 0 | 0 | 0 | 0 | 0
CN(C)C(=O)c1ccc(Cn2c(C(=O)O)cc3c(Br)cc(Sc4ccc(Cl)c(Cl)c4)cc32)cc1 [Rheb inhibitor NR1] (10 µM) | 0 | 0 | 0 | 0 | 0 | 0 | 0 | 0 | 0 | 0 | 0 | 0 | 0 | 0 | 0 | 0 | 0 | 0 | 0 | 0
CC(=O)Oc1ccc(/C=C/c2cc(OC(C)=O)cc(OC(C)=O)c2)cc1 [Triacetylresveratrol] (10 µM) | 0 | 0 | 0 | 0 | 0 | 0 | 0 | 0 | 0 | 0 | 0 | 0 | 0 | 0 | 0 | 0 | 0 | 0 | 0 | 0
CC(C)(C)c1cc(C=C(C#N)C#N)cc(Br)c1O (2.5 µM) | 0 | 0 | 0 | 0 | 0 | 0 | 0 | 0 | 0 | 0 | 0 | 0 | 0 | 0 | 0 | 0 | 0 | 0 | 0 | 0
O=C1C=CC[C@@H]2[C@H]3CCCN4CCC[C@@H](CN12)[C@@H]34 [Sophocarpine] (10 µM) | 0 | 0 | 0 | 0 | 0 | 0 | 0 | 0 | 0 | 0 | 0 | 0 | 0 | 0 | 0 | 0 | 0 | 0 | 0 | 0
C=CC(=O)N[C@H]1C=C(C)c2c(-c3cnc4ccccc4c3)c3c(N)ncnc3n2C1 (10 µM) | 0 | 0 | 0 | 0 | 0 | 0 | 0 | 0 | 0 | 0 | 0 | 0 | 0 | 0 | 0 | 0 | 0 | 2 | 0 | 0
NCCc1cn(S(=O)(=O)c2c(Cl)nc3sccn23)c2ccccc12 (10 µM) | 0 | 0 | 0 | 0 | 0 | 0 | 0 | 0 | 0 | 0 | 0 | 0 | 0 | 0 | 0 | 0 | 0 | 0 | 0 | 0

Part of the list above, limited to number of time points [18].
Compound	number of time points [18]
CC(=O)O[C@H]1[C@H]2[C@@H](OC(=O)Cc3ccccc3)[C@@H](C)C[C@]2(OC(C)=O)C(=O)/C(C)=C/[C@@H]2[C@H](CC[C@@]13CO3)C2(C)C [Euphorbiasteroid] (10 µM)	0
CC1=C[C@]23C(=O)[C@@H](C=C(CO)[C@@H](O)[C@]2(O)[C@H]1O)[C@H]1[C@@H](C[C@H]3C)C1(C)C [Ingenol] (10 µM)	0
